The target in assay [1] is GST-Sgt1 (Arabidopsis). Description: pull-down; GST-Sgt1 as bait, Hsp90 and a Rar1 construct or mutant both present; both purified.
Assay [2] deals with Sgt1 (coprecipitation assay of Figure 3C). Description: co-IP; coprecipitation assays (Figure 3C); taken as the in vivo analysis: formaldehyde-cross-linked Agrobacterium-infiltrated N. benthamiana leaves, α-myc (9E10) agarose beads, blots with α-HA and α-Myc; the paper does not tie the method to the figure.
Assay [3] deals with GST-Sgt1 (Arabidopsis). Description: pull-down; GST-Sgt1 as bait in a wheat-germ cell-free lysate with Hsp90 and Myc-N, wild-type Rar1 present; only the target purified.
The target of assay [4] is GST-Sgt1 (Arabidopsis). Description: pull-down; GST-Sgt1 as bait in a wheat-germ cell-free lysate with Hsp90 and Myc-N, Rar1 P38L or K45E present; only the target purified.
Assay [5] deals with GST-Sgt1 (Arabidopsis). Description: pull-down; GST-Sgt1 as bait in a wheat-germ cell-free lysate with Hsp90 and Myc-N, truncated Rar1 mutants lacking the CHORDI domain present; only the target purified.

Results are given in words; binding and its absence hold for the method and conditions named. Binding can be weak; no strength is given. For some assays here: Tags and fused reporters may be left off the sequences shown. For some assays here: In cells and extracts the contact can be indirect.

B1: CHORDII domain of cress (Arabidopsis thaliana) Rar1 (domain or fragment, UniProt Q9SE33 149-221)
chain: AVIDINQPQVCKNKGCGQTFKERDNHETACSHHPGPAVFHDRLRGWKCCDVHVKEFDEFMEIPPCTKGWHSSS
As for B1, in the assay with GST-Sgt1 (Arabidopsis) [1], the binding result is “binds”.

B2: Rar1 (wild type, not GST-tagged) (protein, UniProt Q9SE33 1-226)
chain: MEVGSATKKLQCQRIGCNAMFTDDDNPQGSCQFHASGPFFHDGMKEWSCCKQRSHDFSLFLEIPGCKTGKHTTEKPVLAKSVPKHPVAAPTSSPDANAATKDSCSRCRQGFFCSDHGSQPKEQIKQTLNTPGQAEEEKIEPLAPPVQKAVIDINQPQVCKNKGCGQTFKERDNHETACSHHPGPAVFHDRLRGWKCCDVHVKEFDEFMEIPPCTKGWHSSSPDPAV
On to B2, for which, in the assay with GST-Sgt1 (Arabidopsis) [1], the binding entry was “binds”.

B3: Rar1 (wild type, coprecipitation assay of Figure 3C) (protein, UniProt Q9SE33 1-226)
chain: MEVGSATKKLQCQRIGCNAMFTDDDNPQGSCQFHASGPFFHDGMKEWSCCKQRSHDFSLFLEIPGCKTGKHTTEKPVLAKSVPKHPVAAPTSSPDANAATKDSCSRCRQGFFCSDHGSQPKEQIKQTLNTPGQAEEEKIEPLAPPVQKAVIDINQPQVCKNKGCGQTFKERDNHETACSHHPGPAVFHDRLRGWKCCDVHVKEFDEFMEIPPCTKGWHSSSPDPAV
Regarding B3, the binding result in assay [2] is given as “binds”.

B4: Rar1 K45E (prey of GST-Sgt1) (protein, UniProt Q9SE33 1-226)
chain: MEVGSATKKLQCQRIGCNAMFTDDDNPQGSCQFHASGPFFHDGMEEWSCCKQRSHDFSLFLEIPGCKTGKHTTEKPVLAKSVPKHPVAAPTSSPDANAATKDSCSRCRQGFFCSDHGSQPKEQIKQTLNTPGQAEEEKIEPLAPPVQKAVIDINQPQVCKNKGCGQTFKERDNHETACSHHPGPAVFHDRLRGWKCCDVHVKEFDEFMEIPPCTKGWHSSSPDPAV
For the molecule B4, in the assay with GST-Sgt1 (Arabidopsis) [1], the binding entry was “binds”.

B5: Rar1 P38L (prey of GST-Sgt1) (protein, UniProt Q9SE33 1-226)
chain: MEVGSATKKLQCQRIGCNAMFTDDDNPQGSCQFHASGLFFHDGMKEWSCCKQRSHDFSLFLEIPGCKTGKHTTEKPVLAKSVPKHPVAAPTSSPDANAATKDSCSRCRQGFFCSDHGSQPKEQIKQTLNTPGQAEEEKIEPLAPPVQKAVIDINQPQVCKNKGCGQTFKERDNHETACSHHPGPAVFHDRLRGWKCCDVHVKEFDEFMEIPPCTKGWHSSSPDPAV
In the case of B5, the binding result with GST-Sgt1 (Arabidopsis) [1] was “binds”.

B6: Rar1 I153Q (prey of GST-Sgt1) (protein, UniProt Q9SE33 1-226)
chain: MEVGSATKKLQCQRIGCNAMFTDDDNPQGSCQFHASGPFFHDGMKEWSCCKQRSHDFSLFLEIPGCKTGKHTTEKPVLAKSVPKHPVAAPTSSPDANAATKDSCSRCRQGFFCSDHGSQPKEQIKQTLNTPGQAEEEKIEPLAPPVQKAVIDQNQPQVCKNKGCGQTFKERDNHETACSHHPGPAVFHDRLRGWKCCDVHVKEFDEFMEIPPCTKGWHSSSPDPAV
As for B6, the binding result with GST-Sgt1 (Arabidopsis) [1] is given as “no binding”.

B7: Rar1 E170K (prey of GST-Sgt1) (protein, UniProt Q9SE33 1-226)
chain: MEVGSATKKLQCQRIGCNAMFTDDDNPQGSCQFHASGPFFHDGMKEWSCCKQRSHDFSLFLEIPGCKTGKHTTEKPVLAKSVPKHPVAAPTSSPDANAATKDSCSRCRQGFFCSDHGSQPKEQIKQTLNTPGQAEEEKIEPLAPPVQKAVIDINQPQVCKNKGCGQTFKKRDNHETACSHHPGPAVFHDRLRGWKCCDVHVKEFDEFMEIPPCTKGWHSSSPDPAV
With B7, in the assay with GST-Sgt1 (Arabidopsis) [1], the binding entry is on record as “no binding”.

B8: Rar1 W217T (prey of GST-Sgt1) (protein, UniProt Q9SE33 1-226)
chain: MEVGSATKKLQCQRIGCNAMFTDDDNPQGSCQFHASGPFFHDGMKEWSCCKQRSHDFSLFLEIPGCKTGKHTTEKPVLAKSVPKHPVAAPTSSPDANAATKDSCSRCRQGFFCSDHGSQPKEQIKQTLNTPGQAEEEKIEPLAPPVQKAVIDINQPQVCKNKGCGQTFKERDNHETACSHHPGPAVFHDRLRGWKCCDVHVKEFDEFMEIPPCTKGTHSSSPDPAV
Regarding B8, in the assay with GST-Sgt1 (Arabidopsis) [1], the binding entry is “no binding”.

B9: Myc-tagged disease resistance protein N (from Nicotiana tabaccum) (receptor, UniProt Q40392 1-1144)
chain: MASSSSSSRWSYDVFLSFRGEDTRKTFTSHLYEVLNDKGIKTFQDDKRLEYGATIPGELCKAIEESQFAIVVFSENYATSRWCLNELVKIMECKTRFKQTVIPIFYDVDPSHVRNQKESFAKAFEEHETKYKDDVEGIQRWRIALNEAANLKGSCDNRDKTDADCIRQIVDQISSKLCKISLSYLQNIVGIDTHLEKIESLLEIGINGVRIMGIWGMGGVGKTTIARAIFDTLLGRMDSSYQFDGACFLKDIKENKRGMHSLQNALLSELLREKANYNNEEDGKHQMASRLRSKKVLIVLDDIDNKDHYLEYLAGDLDWFGNGSRIIITTRDKHLIEKNDIIYEVTALPDHESIQLFKQHAFGKEVPNENFEKLSLEVVNYAKGLPLALKVWGSLLHNLRLTEWKSAIEHMKNNSYSGIIDKLKISYDGLEPKQQEMFLDIACFLRGEEKDYILQILESCHIGAEYGLRILIDKSLVFISEYNQVQMHDLIQDMGKYIVNFQKDPGERSRLWLAKEVEEVMSNNTGTMAMEAIWVSSYSSTLRFSNQAVKNMKRLRVFNMGRSSTHYAIDYLPNNLRCFVCTNYPWESFPSTFELKMLVHLQLRHNSLRHLWTETKHLPSLRRIDLSWSKRLTRTPDFTGMPNLEYVNLYQCSNLEEVHHSLGCCSKVIGLYLNDCKSLKRFPCVNVESLEYLGLRSCDSLEKLPEIYGRMKPEIQIHMQGSGIRELPSSIFQYKTHVTKLLLWNMKNLVALPSSICRLKSLVSLSVSGCSKLESLPEEIGDLDNLRVFDASDTLILRPPSSIIRLNKLIILMFRGFKDGVHFEFPPVAEGLHSLEYLNLSYCNLIDGGLPEEIGSLSSLKKLDLSRNNFEHLPSSIAQLGALQSLDLKDCQRLTQLPELPPELNELHVDCHMALKFIHYLVTKRKKLHRVKLDDAHNDTMYNLFAYTMFQNISSMRHDISASDSLSLTVFTGQPYPEKIPSWFHHQGWDSSVSVNLPENWYIPDKFLGFAVCYSRSLIDTTAHLIPVCDDKMSRMTQKLALSECDTESSNYSEWDIHFFFVPFAGLWDTSKANGKTPNDYGIIRLSFSGEEKMYGLRLLYKEGPEVNALLQMRENSNEPTEHSTGIRRTQYNNRTSFYELING
For B9, the binding result with GST-Sgt1 (Arabidopsis) [3], in the assay with GST-Sgt1 (Arabidopsis) [4] and with GST-Sgt1 (Arabidopsis) [5] was “binds” throughout.

The values are drawn from PMC2935968.
